Results published in the supplement of paper PMC3334620.
The full ranking holds about 33,000 sequences; the median of “E-score (-0.5 to 0.5)” is about -0.0034, and the highest 2% start at about 0.25. The list shows a part of the results.

Target: T1, Yap3 (UniProt P38749)
T1 sequence: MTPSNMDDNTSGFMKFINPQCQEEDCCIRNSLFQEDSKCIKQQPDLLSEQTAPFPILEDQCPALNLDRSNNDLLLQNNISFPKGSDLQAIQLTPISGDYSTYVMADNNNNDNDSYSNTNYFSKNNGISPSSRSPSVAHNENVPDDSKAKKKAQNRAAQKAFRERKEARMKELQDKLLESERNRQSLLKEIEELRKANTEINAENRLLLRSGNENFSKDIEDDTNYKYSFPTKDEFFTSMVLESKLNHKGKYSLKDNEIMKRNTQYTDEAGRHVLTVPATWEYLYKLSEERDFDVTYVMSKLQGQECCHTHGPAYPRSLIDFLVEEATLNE
Experiment: PBM E-score (8-mer binding enrichment) (E-score (-0.5 to 0.5)); higher = stronger / more preferred TF binding
Conditions: protein concentration: 100 nM; construct: GST-full length
How it was run: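 The E-score, a modified Wilcoxon-Mann-Whitney statistic, was computed by the Universal PBM Analysis Suite for every ungapped eight-base word pooled with its reverse complement. Scans behind it were normalised with masliner after bound GST-tagged yeast transcription factors were detected with fluorescent anti-GST. The proteins, at about 100-200 nM, had been applied to universal all-10-mer Agilent arrays made double-stranded by primer extension.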

Sequence | PBM E-score
CTCTCGGA | 0.00281
CCTCGAAC | -0.0642
GAGCCACC | -0.241
ATGCAAAA | 0.242
TCTGAAAA | 0.113
CATATAAA | 0.183
CGGATCTC | -0.131
CATCACCG | -0.0483
ATAGTGTC | 0.051
CGGTGAGC | -0.127
CCTGTCTA | -0.0391
CGCAAGTA | 0.125
AACCGAAC | -0.0848
CCGCTCGA | -0.0717
CCGACAAA | 0.1
CCGAGAAG | 0.0262
CCTGGCGC | -0.149
AGTTCACG | -0.0944
CAACTCCC | 0.067
AAGTTCAC | 0.00912
CGCTTCGC | -0.0694
CAACCCAC | -0.0237
AACCCAAT | -0.00184
CCCTGTAC | -0.311
GCGGAGAA | 0.0215

Sequence | PBM E-score
TGTTATAA | 0.252
AATGGACA | 0.118
CCTCGTGA | -0.131
ATTCACGG | 0.00937
GTTAAGAA | -0.0121
AGCTAGTG | -0.1
CGGCATAG | -0.0989
CCCATCAG | -0.388
TATTTTAA | 0.171
ACGCAAAC | 0.06
ACCCCAGC | -0.144
ATTACGAA | 0.329
CCCGACAG | -0.0497
ATATGAAT | 0.238
AGGCCGGC | -0.226
CCCGTTAG | -0.25
AGGTGCTA | -0.081
GATGGTGC | -0.294
ATGAACTA | 0.21
ACGTCTTC | -0.0899
ACCTATGC | -0.0927
CGCGTTAG | -0.0975
ATACGTGA | 0.176
ATGTCTAG | 0.033
CCTCGGTA | -0.223

Sequence | PBM E-score
CCCAGCCA | -0.00872
AGCTGCGC | -0.0982
AGGGAAGG | -0.217
TAAATCTA | 0.0939
CCATTCTC | -0.0378
ACTTGCGC | 0.036
CGGTGTAG | 0.00612
ATAGTACA | 0.122
AACGCAAT | 0.134
ACCACTTC | -0.043
AAGCATCA | -0.00288
CGTATGGC | 0.0934
GTCTTGGA | -0.0918
AATAGAGC | 0.0845
GGCCCGGA | -0.188
CCGCGCCC | -0.218
AAGAGTAC | 0.0316
TCTCAAGA | -0.0924
CAAAATCA | 0.225
CGAGGTCA | -0.0442
GCTCCCGA | -0.0926
GCTGCTCC | -0.307
AACGTAGC | 0.0205
ATGACTTA | 0.119
CACGGAAG | -0.15

Sequence | PBM E-score
GAGCGCGA | 0.197
ACATGGGC | 0.00331
CGCCGTCA | -0.0719
TCCGCTAA | -0.0432
ACCCTTCT | -0.142
CGCTGTAC | 0.0676
TTACACAA | 0.248
TCGCTGCA | -0.0483
CTGGATTA | 0.0684
ATACTCGA | -0.0822
CGCGCGCG | 0.0113
CTGTAGAC | -0.0617
AAGACCGC | -0.181
CCACCTAG | -0.209
CATCATCG | 0.0276
TCCGGAGA | -0.179
ACCAACTA | 0.0271
AGGTCCTC | -0.0704
AGCGTGAA | -0.0399
TAGGCAGA | 0.0268
GCTGGGCA | -0.229
ATCTGACC | -0.0106
GAGTGATC | 0.0808
ATTTACGA | 0.127
ATTTCCAG | 0.131

6 neighbouring records out of the list so far, quoted:
Sequence | PBM E-score
ACCAACTA | 0.0271
AGGTCCTC | -0.0704
AGCGTGAA | -0.0399
TAGGCAGA | 0.0268
GCTGGGCA | -0.229
ATCTGACC | -0.0106

Additional entries.

Sequence | PBM E-score
CCCATATC | 0.065
CCCTTAAA | -0.0434
CGCAACAA | 0.132
GCTTCTAA | -0.0272
CACATAGG | -0.0256
CAGGTTGA | -0.222
CCTCCATC | -0.239
AAAATAAG | 0.271
ATTGCTTC | -0.0347
AAAACAAC | 0.00549
ACATTTCT | 0.119
AGGGCAAC | 0.0445
CACTCAAG | -0.209
ATCGCGGC | 0.0788
CCATGCAG | -0.157
AACCGGCA | -0.122
CGAACGCA | 0.233
GCGCCTCA | 0.00501
GCTTAGAA | 0.0422
CTGTAGCA | -0.115
AATCCATC | 0.0807
GAGGCGAC | -0.134
AGCAACTA | 0.143
CCTTAGTC | -0.046
CAAAGTTA | 0.156

2 entries drawn at random from those above:
Sequence | PBM E-score
CTGTAGCA | -0.115
AACCGGCA | -0.122

Remaining list, next part

Sequence | PBM E-score
CAAGCGAA | 0.0562
ATTTGGGG | -0.0596
TCGGCCCA | -0.075
GGCTCGGA | -0.319
ATCTTAAT | 0.0977
CTGGTTAC | -0.139
TCGTTACA | 0.118
AAGGCCGG | -0.131
GGTAGGGA | -0.114
ACTTACAT | 0.122
CCCGCTAC | -0.0736
AGAAACAC | 0.0529
CACGTAAA | -0.0521
CCTCTGTC | -0.0561
ACCATAAC | 0.0816
AAAAGGAT | 0.103
GACGTCAC | -0.0471
CGCCCCAA | 0.0626
GCTGTCCC | -0.27
CGTTTCTC | -0.0335
ACTGGCTA | -0.077
CTCAGTAC | 0.0992
AGCGTGCC | -0.187
GAGTTCCA | 0.0016
CAACAAGA | 0.067

Sequence | PBM E-score
AACTCCAA | 0.0543
CATAAAAG | 0.0938
CCACCTAC | -0.0723
AGGACCAA | 0.0138
AGATAGGA | -0.165
ACATCGAA | 0.125
AGGAGTAG | -0.0276
AGCAGCAA | 0.0125
ACAGGGGT | -0.169
CGGAGTGC | -0.11
AGCGTTTG | -0.186
GGGCGGGA | 0.0646
ACCAACAC | 0.156
CCGTCCAA | -0.0198
ACGACCGT | -0.111
GCAGGCAC | -0.279
AGGATCGC | -0.0222
CGAGTACA | 0.0861
CTAAGAAA | 0.165
ACCCTTAA | 0.0439
ACTACCCT | -0.115
GACTCCAC | -0.309
